Data on 1 molecule can be found in patent publication US20110086797A1, “CONTROL OF SPORE GERMINATION” (priority 2007, published 2011).

Entries after “also recorded” stand apart in the source; their conditions may differ.

The subject of one assay is B. subtilis spores. Kind of assay: Measurement of germination by loss of heat resistance. Format: cell-based, Bacillus subtilis.
Assay [1] relates to spores expressing the Mtb kinase.

As for `CN[C@@H]1C[C@H]2O[C@@](C)([C@@H]1OC)n1c3ccccc3c3c4c(c5c6ccccc6n2c5c31)C(=O)NC4` [staurosporine], the “inhibition of cell wall / peptidoglycan dependent germination (result in words)” value in the assay with B. subtilis spores is “sensitive to inhibition by the ATP analog staurosporine (˜pM); also recorded: inhibited with the small molecular kinase inhibitor staurosporine, a natural product of another soil bacterium, at pM concentrations; also recorded: blocking germination of dormant spores at very low (˜pM) concentrations”. For the same molecule, the “sensitivity of germination to inhibition (result in words)” value in assay [1] was “less sensitive to inhibition by the ATP analog staurosporine (˜μM)”.
